PubChem BioAssay AID1508597 – Cure First | 2020

Test: 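Genes whose silencing sensitises or protects ovarian cancer cells against rucaparib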 (primary screen)
Cells: human ovarian carcinoma lines grown from tumours: OCI-P5x (papillary serous) and OCI-C5x (clear cell)
Reagent: siRNA pool against human genes, 1.25 pmol siRNA per well
Time to read-out: 72 h or 96 h, depending on the cell culture
Treatment: rucaparib 20 µM (about IC30) or vehicle, present until read-out
Rucaparib or vehicle: Rucaparib
Cell line: OCI-C5x (clear cell)
Measurement: 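Luminescent ATP-based viability assay read 72 or 96 h after transfection, depending on culture, given as normalised percent viability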
Direction: viability, normalised: higher = more viable cells remaining
Rule for the call: 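a well counts as a hit if its normalised viability is under 80 percent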
Calls: active = viability under 80%; inactive = viability 80% or more
Shown is an unselected part of the about 2,100 reagents, under one of the conditions tested. 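Calls flag viability under 80% in either arm, not effects specific to rucaparib; the reference for percent is not stated.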 A reagent listed more than once was tested more than once; the source does not tell the runs apart. Not stated in the record: the 100% reference.

no.	target	technical replicate	viability, normalised (%)	Outcome
1	CAMK1G (calcium/calmodulin dependent protein kinase IG)	1	54.5	active
2	CAMK1G (calcium/calmodulin dependent protein kinase IG)	1	75.7	active
3	CAMK1G (calcium/calmodulin dependent protein kinase IG)	2	52.7	active
4	CAMK1G (calcium/calmodulin dependent protein kinase IG)	2	83.1	inactive
5	CAMK1G (calcium/calmodulin dependent protein kinase IG)	3	45.8	active
6	CAMK1G (calcium/calmodulin dependent protein kinase IG)	3	64	active
7	HFM1 (helicase for meiosis 1)	1	61.9	active
8	HFM1 (helicase for meiosis 1)	2	37.7	active
9	HFM1 (helicase for meiosis 1)	3	58.7	active
10	EZH1 (enhancer of zeste 1 polycomb repressive complex 2 subunit)	1	37.7	active
11	EZH1 (enhancer of zeste 1 polycomb repressive complex 2 subunit)	2	27	active
12	EZH1 (enhancer of zeste 1 polycomb repressive complex 2 subunit)	3	31.3	active
13	CLP1 (cleavage factor polyribonucleotide kinase subunit 1)	1	42.7	active
14	CLP1 (cleavage factor polyribonucleotide kinase subunit 1)	2	50.3	active
15	CLP1 (cleavage factor polyribonucleotide kinase subunit 1)	3	35.1	active
16	SMARCA5 (SNF2 related chromatin remodeling ATPase 5)	1	61	active
17	SMARCA5 (SNF2 related chromatin remodeling ATPase 5)	2	47.9	active
18	SMARCA5 (SNF2 related chromatin remodeling ATPase 5)	3	54.3	active
19	PIK3R2 (phosphoinositide-3-kinase regulatory subunit 2)	1	38	active
20	PIK3R2 (phosphoinositide-3-kinase regulatory subunit 2)	2	43.5	active
21	PIK3R2 (phosphoinositide-3-kinase regulatory subunit 2)	3	46.4	active
22	TSSK6 (testis specific serine kinase 6)	1	64.1	active
23	TSSK6 (testis specific serine kinase 6)	2	88.6	inactive
24	TSSK6 (testis specific serine kinase 6)	3	68.1	active
25	BBC3 (BCL2 binding component 3)	1	74.5	active
26	BBC3 (BCL2 binding component 3)	2	40	active
27	BBC3 (BCL2 binding component 3)	3	45.8	active
28	UBR7 (ubiquitin protein ligase E3 component n-recognin 7)	1	77.3	active
29	UBR7 (ubiquitin protein ligase E3 component n-recognin 7)	2	74.3	active
30	UBR7 (ubiquitin protein ligase E3 component n-recognin 7)	3	77.6	active
31	PLCB1 (phospholipase C beta 1)	1	54.1	active
32	PLCB1 (phospholipase C beta 1)	2	60.1	active
33	PLCB1 (phospholipase C beta 1)	3	60.9	active
34	NBL1 (NBL1, DAN family BMP antagonist)	1	61.6	active
35	NBL1 (NBL1, DAN family BMP antagonist)	2	50.1	active
36	NBL1 (NBL1, DAN family BMP antagonist)	3	65.4	active
37	FANCA (FA complementation group A)	1	54.8	active
38	FANCA (FA complementation group A)	2	47.8	active
39	FANCA (FA complementation group A)	3	59.1	active
40	EHMT1 (euchromatic histone lysine methyltransferase 1)	1	66.5	active
41	EHMT1 (euchromatic histone lysine methyltransferase 1)	2	48.3	active
42	EHMT1 (euchromatic histone lysine methyltransferase 1)	3	42.2	active
43	RAG2 (recombination activating 2)	1	40.7	active
44	RAG2 (recombination activating 2)	2	35.9	active
45	RAG2 (recombination activating 2)	3	37	active
46	TDRD3 (tudor domain containing 3)	1	55.1	active
47	TDRD3 (tudor domain containing 3)	2	40.3	active
48	TDRD3 (tudor domain containing 3)	3	35.5	active
49	CSK (C-terminal Src kinase)	1	54	active
50	CSK (C-terminal Src kinase)	2	69.3	active
51	CSK (C-terminal Src kinase)	3	51.3	active
52	VPS72 (vacuolar protein sorting 72 homolog)	1	47.5	active
53	VPS72 (vacuolar protein sorting 72 homolog)	2	51.6	active
54	VPS72 (vacuolar protein sorting 72 homolog)	3	50.5	active
55	DDX41 (DEAD-box helicase 41)	1	35.5	active
56	DDX41 (DEAD-box helicase 41)	2	33	active
57	DDX41 (DEAD-box helicase 41)	3	21.4	active
